Measurements published in article PMC10415273.
These are yes or no findings as the source states them, for the method shown. Binding seen in cells or lysates may run through a third protein. Here binding means that the protein was enriched with, or labelled near, the bait; the list need not be complete.

Protein sequences, listed by entry. Tags and fused reporters are not part of them.
UniProt Q7Z434: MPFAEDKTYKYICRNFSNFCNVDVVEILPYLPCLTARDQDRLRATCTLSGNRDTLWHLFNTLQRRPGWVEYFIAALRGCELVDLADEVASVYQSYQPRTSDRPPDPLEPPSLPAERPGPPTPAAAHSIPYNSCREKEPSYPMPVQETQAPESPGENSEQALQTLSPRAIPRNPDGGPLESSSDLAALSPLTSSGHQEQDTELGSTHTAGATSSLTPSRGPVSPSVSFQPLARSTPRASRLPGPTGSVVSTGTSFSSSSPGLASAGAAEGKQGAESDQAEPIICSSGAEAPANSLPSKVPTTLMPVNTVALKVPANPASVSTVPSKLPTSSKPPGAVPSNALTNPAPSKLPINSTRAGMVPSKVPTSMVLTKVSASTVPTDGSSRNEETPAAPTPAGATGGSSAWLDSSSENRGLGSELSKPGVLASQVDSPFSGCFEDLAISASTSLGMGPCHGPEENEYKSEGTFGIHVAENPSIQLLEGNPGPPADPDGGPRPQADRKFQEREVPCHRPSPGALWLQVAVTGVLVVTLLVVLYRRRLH
UniProt O14744: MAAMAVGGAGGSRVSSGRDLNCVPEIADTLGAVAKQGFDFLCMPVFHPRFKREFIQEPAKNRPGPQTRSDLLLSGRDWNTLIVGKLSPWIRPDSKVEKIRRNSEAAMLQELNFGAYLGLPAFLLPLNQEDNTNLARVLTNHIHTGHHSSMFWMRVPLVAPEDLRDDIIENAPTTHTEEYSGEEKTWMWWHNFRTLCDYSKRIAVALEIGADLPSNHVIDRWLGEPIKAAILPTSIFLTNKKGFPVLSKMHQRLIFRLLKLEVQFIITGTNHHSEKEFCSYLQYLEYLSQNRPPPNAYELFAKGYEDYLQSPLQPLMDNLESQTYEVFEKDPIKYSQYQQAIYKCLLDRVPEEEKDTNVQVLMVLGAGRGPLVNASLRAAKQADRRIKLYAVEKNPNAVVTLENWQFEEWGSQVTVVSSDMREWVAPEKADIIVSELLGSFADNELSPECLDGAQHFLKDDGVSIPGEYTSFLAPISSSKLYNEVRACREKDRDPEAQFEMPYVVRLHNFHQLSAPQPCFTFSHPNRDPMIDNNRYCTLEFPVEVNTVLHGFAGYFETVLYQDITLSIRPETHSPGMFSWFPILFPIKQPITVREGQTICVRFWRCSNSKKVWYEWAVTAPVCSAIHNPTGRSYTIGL

Target: Flag-MAVS (human) (UniProt Q7Z434)
Assay: affinity purification with mass spectrometry; Flag-MAVS pulled down on M2 beads from HEK293T-Flag-MAVS stable cells lacking endogenous MAVS; SDS-PAGE, silver staining, mass spectrometry

- binding: binds
Substance: endogenous PRMT5 (from UniProt O14744 1-637)
